Measured values: PubChem BioAssay AID504467 (National Center for Advancing Translational Sciences (NCATS), 2011)
Out of some 330,000 compounds screened, about 7,700 (2.3%) were called active. This list was built around the results that the source calls inconclusive (neither active nor inactive); the mix of calls is not that of the screen. Calls follow the shape of the dose curve; as a rule, active = well fitted inhibition curve with a large enough effect; inconclusive = small, poorly fitted or top-dose-only effect, or effect the other way; inactive = flat fitted curve, though single readings scatter. A potency beside an inconclusive call is a rough fit, not a confirmed value.

Experiment: qHTS screen for small molecules that inhibit ELG1-dependent DNA repair in human embryonic kidney (HEK293T) cells expressing luciferase-tagged ELG1; also: nearly all actives have a fitted effect of over 55% in size
Settings: HEK293T ELG1-luciferase reporter, luminescence, 16 h, DNA damage induced by 5-fluorouridine; series mostly up to 46.1 µM
Method in brief: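 5-Fluorouridine DNA damage + compound/DMSO, 2,000 cells/well, 16 h, 37 °C/5% CO2. ONE-Glo, 30 min RT, luminescence. Readout = decrease in reporter signal.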
Potency is read from the fitted curve at half-maximal effect.

Row | Structure (SMILES) | Potency
1 | COc1cc(NC(=O)COc2c(C)cc(C)cc2[N+](=O)[O-])c(OC)cc1Cl | inconclusive: 29.1 µM [inhibitor, partial curve, poor fit]
2 | CC(=O)c1ccc(NS(=O)(=O)c2cc3c(cc2C)N(C)CCO3)cc1 | inactive
3 | Nc1nnc(CC(c2ccccc2)c2ccccc2)s1 | inactive
4 | N#Cc1ccc(/C=C/C(=O)c2cccnc2)cc1 | inconclusive: 16.4 µM [activator, single point]
5 | CC[C@@H](C)C(NC(=O)OC(C)(C)C)c1cn([C@@H](CCCCNC(=O)OC(C)(C)C)C(=O)N2CCN(C(=O)OC(C)(C)C)CC2)nn1 (stereo not given in full) | inactive
6 | CCOc1ccc2[nH]c(=O)c(C(c3nnnn3Cc3ccco3)N3CCC(C)CC3)cc2c1 (stereo not given) | inconclusive: 29.1 µM [inhibitor, single point]
7 | COc1cccc(C(=O)/C(C#N)=N/Nc2cccc(-c3ccnc(C)n3)c2)c1 | inconclusive: 23.1 µM [inhibitor, single point]
8 | O=c1cc(-c2ccsc2)oc2ccccc12 | inconclusive: 20.6 µM [activator, single point]
9 | COc1ccc(S(=O)(=O)Nc2ccc3c(c2)n(C)c(=O)n3C)cc1 | inconclusive: 23.1 µM [activator, partial curve, poor fit]
10 | CC(C)c1ccc(NC2CCCN(C(=O)CCN3CCCCO3)C2)cc1 (stereo not given) | inactive
11 | O=C(Nc1ccc(F)c(F)c1)c1cnc(-c2ccccc2)nc1-c1ccccc1 | inactive
12 | COC(=O)c1ccccc1N1C(=O)[C@@H]2C(c3ccc(F)cc3)=NO[C@@H]2C1=O | inconclusive: 20.6 µM [activator, partial curve, poor fit]
13 | N/C(=N\O)c1ccc(NC(=O)c2ccc(Br)o2)cc1 | inconclusive: 9.2 µM [activator, single point]
14 | CC/C(=N\NC(=O)c1ccc2c(c1)OCO2)C12CC3CC(CC(C3)C1)C2 | inconclusive: 18.4 µM [activator, single point]
15 | Cc1ccc(C)c(NC(=S)NCCc2c[nH]c3ccccc23)c1 | inactive
16 | COc1ccc(Br)c(-c2nnc(CS(=O)(=O)c3ccccc3)o2)c1 | inconclusive: 10.3 µM [activator, partial curve]
17 | Cc1ccc2nc(SCC(=O)Nc3ccc(Br)cc3)nc(=O)n2c1 | inconclusive: 29.1 µM [activator, single point]
18 | O=C(COC(=O)COc1ccc(Br)cc1)NNC(=O)c1ccccc1 | inactive
19 | CS(=O)(=O)c1ncc(Cl)c(C(=O)Nc2ccc3ccccc3c2)n1 | inconclusive: 29.1 µM [inhibitor, single point]
20 | CN(CC(=O)Nc1cccc(F)c1)C(=O)CCCNC(=O)c1ccc(Cl)cc1 | inconclusive: 18.3 µM [activator, partial curve]
21 | COc1ccc(O)c(C(=O)C2c3ccccc3C(=O)N2c2ccc(C)cc2)c1 (stereo not given) | inconclusive: 16.4 µM [activator, partial curve]
22 | O=C1NC(c2ccccc2Br)=N/C1=C\c1ccco1 | inconclusive: 23.1 µM [activator, partial curve]
23 | Cc1ccc2oc(=O)c(/C=C(\O)CC(C)C)nc2c1 | inactive
24 | O=[N+]([O-])c1ccc(-c2csc(N3CCCCCC3)n2)cc1 | inconclusive: 20.6 µM [activator, partial curve]

Row | Structure (SMILES) | Potency
25 | N/C(=N\OC(=O)c1ccccc1)c1ccncc1 | inconclusive: 10.3 µM [activator, partial curve]
26 | COc1ccc(NC(=O)c2c(F)cccc2F)cc1S(=O)(=O)Nc1ccc(Br)cc1 | inconclusive: 9.2 µM [inhibitor, partial curve, poor fit]
27 | CCOc1cc(/C=C/c2ccc3cccc([N+](=O)[O-])c3n2)ccc1OCC(=O)N(C)C | active: 16.4 µM
28 | Brc1ccc(/C=N/Nc2nncc(-c3ccccc3)n2)o1 | inactive
29 | CCOc1ccc(CN2CCN(Cc3cc4c(cc3Cl)OCO4)CC2CCO)cc1 (stereo not given) | inconclusive: 29.1 µM [inhibitor, single point]
30 | CCCN(C(=O)Cn1nc(C)c([N+](=O)[O-])c1C)c1c(N)n(Cc2ccccc2)c(=O)[nH]c1=O | inactive
31 | COc1ccc(OC)c(-n2c(CNC3CCN(Cc4ccccc4)CC3)nc3ccccc3c2=O)c1 | inactive
32 | CCn1c(Cc2ccccc2)n[nH]c1=S | inactive
33 | CC(=O)Nc1ccc(S(=O)(=O)Nc2nnc(CC(C)(C)C)s2)cc1 | inactive
34 | COc1cccc(CC(=O)OC(C)C(=O)Nc2ncc(Cl)cc2Cl)c1 (stereo not given) | inactive
35 | CN(C)CCn1c2c(c(SCC(=O)N3CCc4ccccc43)nc1=O)CCCC2 | inconclusive: 9.2 µM [activator, partial curve, poor fit]
36 | COc1cccc(CNc2ccc3[nH]c(=O)[nH]c3c2)c1OCc1ccccc1F | active: 9.2 µM
37 | C/C(=N\NC(=O)c1cc(-c2cccs2)nc2ccccc12)c1ccccn1 | inactive
38 | CCCN(Cc1nnc(-c2cccs2)o1)C(=O)CN1C(=O)NC2(CCC(C)CC2)C1=O (stereo not given) | inconclusive: 23.1 µM [activator, single point]
39 | Cc1ccc(N(CCC#N)C(=O)CCl)cc1C | active: 18.4 µM
40 | COc1ccc(-c2nn(-c3ccccc3F)cc2CNCCn2nc(C)cc2C)cc1 | inconclusive: 29.1 µM [inhibitor, single point]
41 | O=C(Nc1ccccn1)c1ccco1 | inconclusive: 12.6 µM [activator, partial curve, poor fit]
42 | O=c1cc(N2CCC3(CC2)OCCO3)[nH]c(=O)n1C1CCCCC1 | inconclusive: 18.4 µM [activator, single point]
43 | Cc1cc(C)n2nc(SCc3cc(=O)oc4cc(O)ccc34)nc2n1 | inconclusive: 29.1 µM [inhibitor, single point]
44 | CC(=O)/C=C(\C)Nc1ccc(-c2cnc(-c3ccccc3)o2)cc1 | inconclusive: 3.66 µM [activator, partial curve]
45 | Cn1c(SCC(=O)Nc2nc(C(C)(C)C)cs2)nnc1C1CC1 | inconclusive: 29.1 µM [inhibitor, single point]
46 | O=C(NCC1CCCO1)c1ccc(Br)s1 (stereo not given) | inactive
47 | O=C(Nc1ccc(F)cc1)c1cccc2c1C(=O)N(Cc1ccccn1)C2 | inconclusive: 29.1 µM [inhibitor, single point]
48 | Cc1cc(NC(=O)CSc2ncc(C(=O)O)n2-c2ccc(F)cc2)no1 | inconclusive: 3.66 µM [activator, partial curve]

Some of these compounds in order of molar mass, rising:
Row | Structure (SMILES) | Potency
41 | O=C(Nc1ccccn1)c1ccco1 | inconclusive: 12.6 µM [activator, partial curve, poor fit]
25 | N/C(=N\OC(=O)c1ccccc1)c1ccncc1 | inconclusive: 10.3 µM [activator, partial curve]
38 | CCCN(Cc1nnc(-c2cccs2)o1)C(=O)CN1C(=O)NC2(CCC(C)CC2)C1=O (stereo not given) | inconclusive: 23.1 µM [activator, single point]

Remaining list, next part

Row | Structure (SMILES) | Potency
49 | Cc1ccccc1CSc1nc2[nH]ncc2c(=O)[nH]1 | inconclusive: 18.3 µM [activator, single point]
50 | O=C(OCc1ccccc1)N1CCc2ccccc21 | inconclusive: 7.08 µM [activator, partial curve]
51 | Cc1cnc(C(=O)N2CCCC(C(=O)c3cccc(OC(C)C)c3)C2)cn1 (stereo not given) | inactive
52 | CC(=O)c1ccc(N2CCN(C(=O)C3CCN(S(=O)(=O)c4ccc5c(c4)CC(C)N5C(=O)C4CC4)CC3)CC2)cc1 (stereo not given) | inconclusive: 7.3 µM [inhibitor, partial curve]
53 | COc1ccc(NC(=O)CN(C)C2CCS(=O)(=O)C2)cc1 (stereo not given) | inconclusive: 2.59 µM [activator, single point]
54 | CCc1cc(C(=O)COc2ccccc2F)c(O)cc1O | inconclusive: 1.16 µM [activator, single point]
55 | Cn1c(=O)c2ccccc2n(Cc2ccccc2Cl)c1=O | inactive
56 | CCOC(=O)c1cnc2c(C)cc(C)cc2c1Nc1ccc(S(=O)(=O)Nc2ncccn2)cc1 | inconclusive: 20.6 µM [activator, single point]
57 | O=C(NCC1CCCO1)c1ccc(Cn2c(=S)[nH]c3ccccc3c2=O)cc1 (stereo not given) | inconclusive: 20.6 µM [inhibitor, single point]
58 | C[C@@H](NC(=O)Cn1cnc2c(OCc3ccccc3)ncnc21)c1cccc2ccccc12 | inconclusive: 23.1 µM [inhibitor, single point]
59 | Cc1ccc(S(=O)(=O)Oc2ccccc2/C=N/Nc2ccc(C(=O)O)cc2)cc1 | inconclusive: 29.1 µM [inhibitor, single point]
60 | Cn1c(SCC(=O)Nc2nccs2)nnc1-c1cccnc1 | inactive
61 | Cc1ccc(-c2cc(-c3ccccc3)c(C#N)c(N)n2)o1 | inconclusive: 16.4 µM [inhibitor, single point]
62 | O=[N+]([O-])c1ccccc1NCCNS(=O)(=O)c1ccc(Cl)cc1 | inactive
63 | COc1ccc(OCC(O)Cn2c(=N)n(CCN3CCCCC3)c3ccccc32)cc1 (stereo not given) | inconclusive: 25.9 µM [inhibitor, partial curve, poor fit]
64 | Cc1ccc(N2C(=O)N3[C@H](c4ccc(F)cc4)[C@@H]4C(=O)N(C5CCCCC5)C(=O)[C@@H]4[C@]3(Cc3ccccc3)C2=O)cc1 | inactive
65 | O=C(OCn1nnc2ccccc2c1=O)C1COc2ccccc2O1 (stereo not given) | inactive
66 | O=c1c2ccccc2cnn1CCOc1cccc(Br)c1 | inconclusive: 18.3 µM [activator, partial curve]
67 | Nc1nc(CN2CCN(C(c3ccccc3)c3ccccc3)CC2)nc(Nc2ccccc2)n1 | inconclusive: 0.58 µM [inhibitor, partial curve, poor fit]
68 | O=[N+]([O-])c1c(Nc2ccccn2)cc(Cl)c2nonc12 | inconclusive: 20.6 µM [inhibitor, partial curve, poor fit]
69 | COc1ccc(C(=O)COC(=O)CN2C(=O)NC3(CC(C)CC(C)(C)C3)C2=O)c(OC)c1 (stereo not given) | inactive
70 | CCOC(=O)c1ccc2c(c1)nc(COc1ccc3ccccc3c1)n2CC | inconclusive: 18.4 µM [inhibitor, single point]
